The assay is described as follows: qHTS Assay for Lipid Storage Modulators in Drosophila S3 Cells.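 On cell number change: cells counted by Cell Tracker Red CMTPX staining in the red channel.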 The settings on record: BODIPY lipid droplet fluorescence, 18-24 h; for cell number change: measured here: cell count max response, cells fed with added oleic acid. In short, it runs like this: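 Drosophila S3 cells got compounds at several concentrations plus oleic acid (400 uM solution). Laser-scanning cytometry with 488 nm excitation read lipid droplets at 500-530 nm and cells at 575-640 nm. Percent activity was relative to 20 uM Triacsin C.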

[1] abbreviates: measured here: lipid fluorescence (Fed channel) AC50, cells fed with added oleic acid.
The mark [2] stands for this setting: measured here: cell number channel AC50, cells fed with added oleic acid.

SMILES strings stand for the structures. The list shows a part of the results. The main result of the screen is listed elsewhere. These columns were measured beside it and carry no call. The list favours compounds with an active or inconclusive main result. Potencies come from curve fits of mixed quality, noted in brackets.

`O=C(C1CCC(CNS(=O)(=O)c2cccc3nsnc23)CC1)N1CC=C(c2ccccc2)CC1` (centres undefined): the cell number change was -20%. Under setting [1], the AC50 was 18.4 µM [falling, single point].
Take `COc1ccc(C2=NNC(c3cc(Cl)cc4c3OCOC4)C2)c(O)c1` (centres undefined): the cell number change stood at 108%. For the same compound, the AC50 under setting [2] is 20.6 µM [rising, single point]. Moreover, the AC50 under setting [1] is 29.1 µM [rising, single point].
Take `COc1ccc2c(c1)c1nnc(SCC(=O)Nc3ccccc3F)nc1n2C`: the cell number change was 8.37%. The AC50 under setting [1] was 29.1 µM [falling, single point].
Take `CC(C)(NC(=O)N1CCCC1)c1cccc(C(C)(C)NC(=O)N2CCCC2)c1`: the cell number change was -29.5%.
Consider `COC(=O)C(CCSC)NC(=O)/C=C/c1ccc(OC)cc1` (centres undefined), for which the concentration at half-maximal activity (AC50) was 0.291 µM [rising, partial curve] under setting [2] and 0.231 µM [rising, full curve] under setting [1].
Turning to `COC(=O)c1cc(Br)c(=O)n(-c2ccc(F)cc2)c1`, the cell number change was -45.9%. Moreover, under setting [2], the AC50 was 3.26 µM [falling, full curve]. Moreover, under setting [1], the AC50 was 29.1 µM [falling, single point].
In the case of `NC(=O)NC(=O)COC(=O)[C@H](Cc1ccccc1)NC(=O)c1cccs1`, the cell number change turned out to be 66.5%. Moreover, the AC50 under setting [2] was 14.6 µM [rising, partial curve, poor fit].
As to `CN(C)CCOC(=O)CCCCCCCCC(=O)OCCN(C)C`, the cell number change is 3.7%. Moreover, the AC50 under setting [1] is 5.17 µM [falling, partial curve, poor fit].
Take `CCOC(=O)c1ccc2ncc(C(=O)OCC)c(NCCN3CCOCC3)c2c1`: the cell number change was -22.9%. Besides, the AC50 under setting [1] was 5.17 µM [rising, single point].
In the case of `COCCNC(=S)N(CCc1c(C)[nH]c2ccc(OC)cc12)Cc1ccco1`, the cell number change was -3.55%. In addition, the half-maximal activity concentration (AC50) under setting [1] is 0.651 µM [falling, single point].
As to `CCN1CCN(c2cc(C)c3cc(NC(=O)CCC(=O)Nc4ccc(OC)cc4OC)ccc3n2)CC1`, the cell number change was -8.11%. The AC50 under setting [1] was 29.1 µM [falling, single point].
Regarding `Cc1cc(/C=N/n2cnnc2)c(C)n1-c1cc(Cl)ccc1Cl`, the cell number change was found to be 0.129%.
`CNC(=O)c1c2c(nc3ccc(Br)cc13)CCCC2`: under setting [1], the AC50 is 0.116 µM [rising, single point].
On to `Cc1c(NC(=O)C2CCCCN2S(=O)(=O)c2ccc(Cl)cc2)c(=O)n(-c2ccccc2)n1C` (centres undefined), for which the cell number change was 11.4%. Moreover, the AC50 under setting [1] is 1.64 µM [falling, partial curve].
As to `C[C@H]1[C@H]2c3nc4ccccc4n3C[C@H]1ON2C1CCCCC1`, the cell number change is -9.28%. Besides, the AC50 under setting [1] was 32.6 µM [falling, single point].
Take `CC(=O)c1cccc(NC(=S)NC2CCCCCCC2)c1`: the cell number change is -4.91%. Also, under setting [1], the AC50 was 29.1 µM [falling, single point].
For `O=C(CN(C(=O)CNS(=O)(=O)c1ccccc1)C1CCCC1)NCc1ccco1`, the cell number change was -21.7%.
For `CN(C)C(CNC(=O)c1cccs1)c1ccco1` (centres undefined), the cell number change was -10.4%. Under setting [1], the AC50 was 16.4 µM [rising, partial curve].
For the compound `CCC(C)N(C(=O)COc1ccc(Br)cc1C=O)C1CCS(=O)(=O)C1` (centres undefined), the cell number change amounted to 48.5%. The AC50 under setting [2] is 13 µM [rising, single point].
Consider `COc1ccccc1CN1CC(C(=O)NCc2cnn(C)c2)CCC1=O` (centres undefined), for which the cell number change was 1.76%.
Turning to `COCCCn1c(=O)c2sccc2n2c(CCCC(=O)NCc3ccc(F)cc3)nnc12`, the cell number change turned out to be 1.91%. For the same compound, the AC50 under setting [1] is 0.58 µM [falling, single point].
On to `CCCN(CC(=O)Nc1ccccc1C)C(=O)c1cn2ccccc2n1`, for which the cell number change is -9.59%. Under setting [1], the AC50 was 3.66 µM [rising, partial curve, poor fit].
For the compound `Cn1c(=O)c(=O)n(C)c2cc([N+](=O)[O-])c([N+](=O)[O-])cc21`, the cell number change is -49.1%. Also, under setting [2], the AC50 is 0.00461 µM [falling, full curve, poor fit]. Also, the AC50 under setting [1] was 0.00461 µM [falling, full curve, poor fit].
In the case of `CCOc1ccc(C(=O)OCCN(C)C)cc1`, the cell number change is -32.7%. Further, the AC50 under setting [2] is 4.11 µM [falling, full curve]. Under setting [1], the AC50 was 29.1 µM [falling, single point].
As for `CC(=O)N1CCc2cc(NC(=O)c3ccc(C)cc3)ccc21`, the AC50 runs as follows: under setting [2], 1.84 µM [rising, partial curve, poor fit]; under setting [1], 0.411 µM [rising, single point].
Regarding `COc1ccc(NC(=O)C2CCN(c3cnccn3)CC2)cc1Cl`, the cell number change was 9.79%. Besides, under setting [1], the AC50 is 25.9 µM [rising, single point].
`CC(=O)OCC1=C(C(=O)O)N2C(=O)C(NC(=O)c3ccc(COc4cccc(Cl)c4Cl)o3)C2SC1` (centres undefined): the cell number change was -37.7%. Also, the AC50 under setting [2] is 29.1 µM [falling, single point].
`COc1ccc(OC)c(Nc2nc(NCCCN(C)C)nc(N)c2[N+](=O)[O-])c1`: the cell number change is -32.1%. The AC50 under setting [2] was 5.17 µM [falling, partial curve]. Besides, the AC50 under setting [1] is 8.2 µM [falling, partial curve].
`COc1ccc(NC(=O)c2cccc(S(=O)(=O)N3CCN(C)CC3)c2)c(OC)c1`: the cell number change turned out to be 13.5%. Moreover, under setting [1], the half-maximal activity concentration (AC50) is 20.6 µM [falling, partial curve].
For the compound `CC(=NCc1ccco1)c1c(C)[nH]n(-c2nc3ccccc3s2)c1=O`, the cell number change is -0.489%. For the same compound, the AC50 under setting [1] was 6.51 µM [falling, single point].
With `COc1ccc(Cl)cc1NC(=O)C(C)N1CCN(C/C=C/c2ccccc2)CC1` (centres undefined), the cell number change was determined as 11.4%. Also, the AC50 under setting [2] was 2.06 µM [rising, partial curve]. In addition, the AC50 under setting [1] is 6.51 µM [rising, single point].
In the case of `COc1ccc(NC(=O)CSc2nc(-c3ccco3)nc3cc(=O)[nH]n23)cc1Cl`, the cell number change is -12.7%. Further, the AC50 under setting [1] is 1.3 µM [falling, partial curve].
For `O=C(/C=C/c1ccc([N+](=O)[O-])cc1)c1cccnc1`, the cell number change is -53.1%. The AC50 under setting [2] is 23.1 µM [falling, single point]. For the same compound, the AC50 under setting [1] was 2.31 µM [falling, full curve].
For `COc1ccc(OC)c(C2C(C(=O)Nc3ccc(F)cc3)=C(C)Nc3nc(CCCO)nn32)c1` (centres undefined), the cell number change was 57.6%. Moreover, the AC50 under setting [2] is 11.6 µM [rising, partial curve].
On to `N/C(=N\OC(=O)Oc1ccccc1)c1cccc([N+](=O)[O-])c1`, for which the cell number change was 22.1%. In addition, the AC50 under setting [1] was 6.51 µM [falling, single point].
For the compound `CCN1CCN(C(=O)Cn2ncc3ccsc3c2=O)CC1`, the cell number change is -36.1%. Also, the AC50 under setting [2] was 1.46 µM [falling, full curve]. Further, the AC50 under setting [1] was 1.3 µM [falling, full curve].
Regarding `Cc1ccc(S(=O)(=O)N2CCC(C(=O)Nc3ccc4c(c3)COC4=O)CC2)cc1`, the cell number change is -7.71%. Under setting [1], the concentration at half-maximal activity (AC50) was 0.00461 µM [rising, full curve, poor fit].
Consider `COc1ccc(-c2cc(-c3ccccc3)c(C#N)c(SCC(=O)Nc3ncc(C)s3)n2)cc1`, for which the cell number change is -3.84%. For the same compound, under setting [2], the AC50 was 0.0651 µM [rising, full curve, poor fit].
Regarding `CCOC(=O)/C=C/C(=O)Nc1ccc(S(=O)(=O)Nc2cc(C)on2)cc1`, the cell number change came out at 221%.
For `O=C(NC(=O)N1CCCc2ccccc21)c1ccccc1`, the cell number change stood at 13.2%. Besides, the AC50 under setting [1] was 0.184 µM [falling, full curve, poor fit].
With `O=C(CSc1nnc(-c2ccoc2)o1)N1CCOCC1`, the cell number change stood at 9.75%. Besides, the AC50 under setting [2] was 3.66 µM [rising, partial curve]. Moreover, under setting [1], the AC50 was 6.51 µM [rising, single point].
With `Cc1ccc(C(=O)N2CCCC(N3CCN(c4cccc(C(F)(F)F)c4)CC3)C2)s1` (centres undefined), the cell number change is -12.8%. For the same compound, the AC50 under setting [1] was 2.31 µM [rising, partial curve, poor fit].
Turning to `O=C(c1cccc2nc3ccccc3nc12)N1CCOCC1`, the cell number change is -3.04%. Besides, the AC50 under setting [1] is 29.1 µM [falling, single point].
In the case of `Cc1ccc(CNC(=O)c2ccc(CN3CCOCC3)cc2)cc1`, the cell number change worked out at 1.93%. Also, the AC50 under setting [1] is 3.26 µM [rising, single point].
As to `Cc1[nH]nc2c1C(=O)CC(C)(C)C2`, the AC50 under setting [1] was 0.13 µM [falling, full curve, poor fit].
On to `Cn1c(NCc2c[nH]c3ccccc23)nc2ccccc21`, for which the cell number change is 74.9%. Also, the AC50 under setting [2] is 25.9 µM [rising, single point]. The AC50 under setting [1] is 18.4 µM [rising, partial curve].
Turning to `Cc1ccc(C)c2[nH]c(=O)c(CCNC(=O)c3ccc(S(=O)(=O)N(C)C)cc3)cc12`, the cell number change was determined as 59.2%. Also, the AC50 under setting [2] is 1.64 µM [rising, full curve]. The AC50 under setting [1] was 1.84 µM [rising, full curve].
Turning to `O=C(Nc1ccc2c(c1)OCCO2)C1CCN(S(=O)(=O)c2cccs2)CC1`, the cell number change came out at 2.64%.
For the compound `Cc1cc(NC(=O)CSc2nnc(NC(=O)C3CC(=O)N(c4ccccc4C)C3)s2)no1` (centres undefined), the cell number change is -36.7%. The AC50 under setting [2] is 0.116 µM [falling, full curve]. In addition, under setting [1], the AC50 was 29.1 µM [falling, single point].
Consider `O=C(CN(C(=O)CCC(=O)Nc1nccs1)c1ccc(F)cc1)NCCc1ccccc1`, for which the cell number change was 38.7%. Moreover, under setting [2], the AC50 was 11.6 µM [rising, partial curve, poor fit].
As for `CC(NC(=O)c1ccco1)C(=O)O` (centres undefined), the cell number change is -3.93%. Also, the AC50 under setting [2] is 2.06 µM [falling, single point]. The AC50 under setting [1] is 0.0651 µM [rising, full curve, poor fit].
For the compound `c1ccc(-c2cn3c(n2)CCC3)cc1`, the cell number change was 6.58%. Further, the half-maximal activity concentration (AC50) under setting [1] is 5.17 µM [falling, full curve].
`CCCCCCNc1nc(-c2ccc(OC)cc2)c(CCC(=O)O)s1`: the cell number change is 19.1%. Also, the AC50 under setting [1] was 4.11 µM [rising, partial curve].
In the case of `O=C1c2ccccc2C2=Nc3ccccc3SC(c3ccccc3F)C12` (centres undefined), the cell number change was -78.7%. For the same compound, under setting [2], the AC50 was 29.1 µM [falling, partial curve, poor fit]. Under setting [1], the AC50 is 0.92 µM [falling, full curve].
For the compound `CCOC(=O)CN1C(=O)c2ccccc2C1=O`, the cell number change was found to be 19.5%. Moreover, the AC50 under setting [1] was 0.0103 µM [rising, full curve, poor fit].
`COc1ccc(-c2cc(C(=O)OCC(=O)c3c(N)n(C)c(=O)n(C)c3=O)c3ccccc3n2)cc1`: the cell number change amounted to 37%. For the same compound, the AC50 under setting [2] was 0.82 µM [rising, full curve, poor fit]. Further, the AC50 under setting [1] is 29.1 µM [rising, single point].

What is called AC50 is the concentration giving half of the maximal activity seen. Read a low AC50 as greater potency.
